This experiment concerns the target T1, HDA19 (histone deacetylase 19), full-length, BD fusion (Arabidopsis thaliana) (UniProt O22446).
T1 sequence: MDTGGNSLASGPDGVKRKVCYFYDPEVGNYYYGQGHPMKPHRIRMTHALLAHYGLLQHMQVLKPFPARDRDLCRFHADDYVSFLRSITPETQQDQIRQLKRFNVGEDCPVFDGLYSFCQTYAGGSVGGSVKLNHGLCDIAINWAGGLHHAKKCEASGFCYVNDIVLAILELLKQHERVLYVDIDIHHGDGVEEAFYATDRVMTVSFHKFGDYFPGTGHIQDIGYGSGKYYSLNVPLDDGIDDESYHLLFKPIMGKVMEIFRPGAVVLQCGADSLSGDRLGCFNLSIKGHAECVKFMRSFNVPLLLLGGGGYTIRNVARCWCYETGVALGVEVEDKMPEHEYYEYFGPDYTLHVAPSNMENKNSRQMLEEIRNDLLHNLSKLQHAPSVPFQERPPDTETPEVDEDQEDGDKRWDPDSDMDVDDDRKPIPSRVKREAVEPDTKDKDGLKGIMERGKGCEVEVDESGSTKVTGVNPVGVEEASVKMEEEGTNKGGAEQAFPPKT
The experiment is described as follows: yeast three-hybrid.

No constants are given. Whether binding was seen depends on the method and setting. Where a sequence is shown, tags or fusion partners need not be part of it.

Results on two molecules are retold here after doi:10.1101/313791 (bioRxiv, 2018).

B1: JACKDAW (JKD), AD fusion (protein, UniProt Q700D2 1-503)
chain: MQMIPGDPFSISSSMGGFVHQETHLHHLQQQIPDLNPNSNPNPNAKPNSSSAKKKRNQPGTPDPDADVIALSPTTLMATNRFVCEICNKGFQRDQNLQLHRRGHNLPWKLKQRSKQEVIKKKVYICPIKTCVHHDASRALGDLTGIKKHYSRKHGEKKWKCEKCSKKYAVQSDWKAHAKTCGTREYKCDCGTLFSRKDSFITHRAFCDALTEEGARMSSLSNNNPVISTTNLNFGNESNVMNNPNLPHGFVHRGVHHPDINAAISQFGLGFGHDLSAMHAQGLSEMVQMASTGNHHLFPSSSSSLPDFSGHHQFQIPMTSTNPSLTLSSSSTSQQTSASLQHQTLKDSSFSPLFSSSSENKQNKPLSPMSATALLQKAAQMGSTRSNSSTAPSFFAGPTMTSSSATASPPPRSSSPMMIQQQLNNFNTNVLRENHNRAPPPLSGVSTSSVDNNPFQSNRSGLNPAQQMGLTRDFLGVSNEHHPHQTGRRPFLPQELARFAPLG
For B1, the binding entry is given as “no binding”.

B2: SHORT-ROOT (SHR), AD fusion (protein, UniProt Q9SZF7 1-531)
chain: MDTLFRLVSLQQQQQSDSIITNQSSLSRTSTTTTGSPQTAYHYNFPQNDVVEECFNFFMDEEDLSSSSSHHNHHNHNNPNTYYSPFTTPTQYHPATSSTPSSTAAAAALASPYSSSGHHNDPSAFSIPQTPPSFDFSANAKWADSVLLEAARAFSDKDTARAQQILWTLNELSSPYGDTEQKLASYFLQALFNRMTGSGERCYRTMVTAAATEKTCSFESTRKTVLKFQEVSPWATFGHVAANGAILEAVDGEAKIHIVDISSTFCTQWPTLLEALATRSDDTPHLRLTTVVVANKFVNDQTASHRMMKEIGNRMEKFARLMGVPFKFNIIHHVGDLSEFDLNELDVKPDEVLAINCVGAMHGIASRGSPRDAVISSFRRLRPRIVTVVEEEADLVGEEEGGFDDEFLRGFGECLRWFRVCFESWEESFPRTSNERLMLERAAGRAIVDLVACEPSDSTERRETARKWSRRMRNSGFGAVGYSDEVADDVRALLRRYKEGVWSMVQCPDAAGIFLCWRDQPVVWASAWRPT
As for B2, the binding result is “no binding”.
